PubChem BioAssay AID504804 | Drosophila RNAi Screening Center – 2011

- Assay: 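Knock-downs shielding fly cells from apoptosis caused by DNA damage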 (primary screen)
- Cell system: Drosophila Kc cells
- Reagents: long dsRNA against Drosophila genes, 0.5 µg dsRNA per well
- Timing: 96 h (48 h knock-down, then 48 h drug)
- Conditions: doxorubicin 5 µg/ml for 48 h, added 48 h after dsRNA
- Detection: 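Luminescent ATP counts per replicate, not normalised, reflecting viable cells after 48 h dsRNA knock-down followed by 48 h of 5 µg/ml doxorubicin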
- Reading the numbers: raw ATP luminescence: higher = more viable cells, protection from doxorubicin
- Hit rule: 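z-score of 2 or more over plate mean in both duplicates, retained only when retests and separate dsRNAs confirm the protection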
The deposit covers about 19,000 reagents; this is an unselected part of those that have a named target and a result. Over the whole deposit, 47 (0.25%) got an active call. 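Signals are raw, not normalised; exact z-scores behind calls not deposited; actives needed confirmation, so some wells reaching 2 SD are inactive.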 A plus sign joins genes that one reagent is predicted to hit. No sequences are given here.

| predicted target | DRSC id | raw ATP luminescence, replicate 1 | raw ATP luminescence, replicate 2 | Call |
| --- | --- | --- | --- | --- |
| CG31522 | DRSC12005 | 57540 | 67443 | inactive |
| CG13386 | DRSC02260 | 44833 | 72027 | inactive |
| CAH9 | DRSC15963 | 60510 | 51510 | inactive |
| CG14634 | DRSC17944 | 61810 | 48020 | inactive |
| CG13560 | DRSC04198 | 55340 | 48813 | inactive |
| Fum2 | DRSC18345 | 43900 | 45740 | inactive |
| CG6576 | DRSC10663 | 95453 | 96817 | inactive |
| CG8006 | DRSC10949 | 43260 | 46783 | inactive |
| Las | DRSC11772 | 25043 | 24723 | inactive |
| CG32086 | DRSC10586 | 60457 | 55813 | inactive |
| Scm | DRSC16853 | 64260 | 50993 | inactive |
| CG12159 | DRSC06114 | 33057 | 82997 | inactive |
| CG32388 | DRSC08861 | 1.60e5 | 1.72e5 | inactive |
| scb | DRSC05542 | 76400 | 73603 | inactive |
| CG43317 | DRSC15000 | 80820 | 61270 | inactive |
| NTPase | DRSC00761 | 1.34e5 | 77850 | inactive |
| CG33110 | DRSC14694 | 18730 | 17890 | inactive |
| CG33110 | DRSC16137 | 78980 | 71400 | inactive |
| CG17224 | DRSC00489 | 19403 | 25290 | inactive |
| Sidpn | DRSC02056 | 70090 | 64223 | inactive |
| CG3253 | DRSC04350 | 67723 | 54733 | inactive |
| CG6966 | DRSC16156 | 61810 | 78370 | inactive |
| CG6870 | DRSC02998 | 58947 | 65293 | inactive |
| bcd + CR14578 | DRSC20984 | 2.84e5 | 2.44e5 | inactive |
| CG33301 | DRSC02778 | 42983 | 54247 | inactive |
| CG12362 | DRSC09884 | 60083 | 57400 | inactive |
| CG18213 | DRSC15316 | 80630 | 89510 | inactive |
| chrb | DRSC11335 | 28523 | 37557 | inactive |
| Cp36 | DRSC18452 | 37990 | 42890 | inactive |
| whd | DRSC07351 | 54637 | 54883 | inactive |
| NfI | DRSC17158 | 58510 | 64760 | inactive |
| CG7856 | DRSC04896 | 54503 | 40927 | inactive |
| Sox14 | DRSC04656 | 56790 | 65937 | inactive |
| Idh | DRSC10779 | 44887 | 33430 | inactive |
